Literature values as cited in patent US20250241861A1, “Mechano-Sensitive Microcapsules For Drug Delivery” (The Trustees of the University of Pennsylvania, priority 2015, published 2025).
At least one structure is not confirmed: it was looked up by name or label, or the drawing left a doubt.

Tested on: MMP activity in chondrocytes
Conditions: 50 ng/mL, after inflammatory stimulation of chondrocytes

In the case of C[C@H]1c2cccc(O)c2C(=O)C2=C(O)[C@]3(O)C(=O)C(C(N)=O)=C(O)[C@@H](N(C)C)[C@@H]3[C@@H](O)[C@@H]21 [doxycycline, reference compound], the MMP activity is listed as “reduce MMP activity”.
